Data from the supplement of paper PMC10849652.
The other results are listed elsewhere or left out.

The chains behind the UniProt entries cited, without tags or fusion partners. Where a name states a change or a piece, a line headed by the entry shows the natural chain unless it says otherwise.
UniProt P06396, whole entry, looked up: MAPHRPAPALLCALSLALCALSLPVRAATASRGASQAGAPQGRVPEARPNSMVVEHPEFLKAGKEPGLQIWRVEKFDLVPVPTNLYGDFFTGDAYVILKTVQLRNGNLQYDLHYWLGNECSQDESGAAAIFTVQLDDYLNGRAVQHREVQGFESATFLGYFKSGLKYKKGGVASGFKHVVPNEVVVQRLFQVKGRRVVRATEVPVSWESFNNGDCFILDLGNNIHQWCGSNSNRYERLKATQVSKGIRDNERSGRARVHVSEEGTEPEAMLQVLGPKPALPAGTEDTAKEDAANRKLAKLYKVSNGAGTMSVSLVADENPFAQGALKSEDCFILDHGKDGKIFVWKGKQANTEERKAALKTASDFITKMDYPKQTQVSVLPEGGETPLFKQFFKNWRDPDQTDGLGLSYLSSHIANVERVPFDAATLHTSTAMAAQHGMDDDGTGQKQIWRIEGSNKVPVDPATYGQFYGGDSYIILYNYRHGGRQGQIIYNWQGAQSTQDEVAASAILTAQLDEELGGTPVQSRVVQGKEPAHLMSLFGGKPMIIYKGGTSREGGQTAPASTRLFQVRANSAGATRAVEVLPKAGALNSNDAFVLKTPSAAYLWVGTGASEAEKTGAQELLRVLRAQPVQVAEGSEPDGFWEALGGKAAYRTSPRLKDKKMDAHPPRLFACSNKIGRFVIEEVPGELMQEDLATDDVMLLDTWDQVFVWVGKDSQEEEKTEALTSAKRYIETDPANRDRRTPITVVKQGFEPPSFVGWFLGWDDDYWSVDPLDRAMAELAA
UniProt Q9NVX0: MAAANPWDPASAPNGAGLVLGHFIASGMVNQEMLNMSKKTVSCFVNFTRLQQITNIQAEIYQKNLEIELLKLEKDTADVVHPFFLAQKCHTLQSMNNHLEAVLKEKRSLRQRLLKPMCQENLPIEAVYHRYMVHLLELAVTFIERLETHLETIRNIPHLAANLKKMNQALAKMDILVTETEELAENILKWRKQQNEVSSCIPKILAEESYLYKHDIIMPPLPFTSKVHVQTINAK
UniProt P29083: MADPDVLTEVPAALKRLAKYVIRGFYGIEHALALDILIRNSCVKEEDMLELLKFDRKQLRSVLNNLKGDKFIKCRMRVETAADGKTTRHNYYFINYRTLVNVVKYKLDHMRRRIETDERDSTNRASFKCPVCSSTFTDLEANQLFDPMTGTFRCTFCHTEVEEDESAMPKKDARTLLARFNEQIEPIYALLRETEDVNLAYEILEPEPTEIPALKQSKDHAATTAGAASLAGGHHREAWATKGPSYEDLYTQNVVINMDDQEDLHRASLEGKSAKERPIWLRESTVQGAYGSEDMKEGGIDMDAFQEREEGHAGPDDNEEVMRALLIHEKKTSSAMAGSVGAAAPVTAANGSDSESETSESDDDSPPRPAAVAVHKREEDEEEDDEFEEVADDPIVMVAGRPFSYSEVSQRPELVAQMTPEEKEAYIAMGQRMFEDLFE
UniProt Q969S8: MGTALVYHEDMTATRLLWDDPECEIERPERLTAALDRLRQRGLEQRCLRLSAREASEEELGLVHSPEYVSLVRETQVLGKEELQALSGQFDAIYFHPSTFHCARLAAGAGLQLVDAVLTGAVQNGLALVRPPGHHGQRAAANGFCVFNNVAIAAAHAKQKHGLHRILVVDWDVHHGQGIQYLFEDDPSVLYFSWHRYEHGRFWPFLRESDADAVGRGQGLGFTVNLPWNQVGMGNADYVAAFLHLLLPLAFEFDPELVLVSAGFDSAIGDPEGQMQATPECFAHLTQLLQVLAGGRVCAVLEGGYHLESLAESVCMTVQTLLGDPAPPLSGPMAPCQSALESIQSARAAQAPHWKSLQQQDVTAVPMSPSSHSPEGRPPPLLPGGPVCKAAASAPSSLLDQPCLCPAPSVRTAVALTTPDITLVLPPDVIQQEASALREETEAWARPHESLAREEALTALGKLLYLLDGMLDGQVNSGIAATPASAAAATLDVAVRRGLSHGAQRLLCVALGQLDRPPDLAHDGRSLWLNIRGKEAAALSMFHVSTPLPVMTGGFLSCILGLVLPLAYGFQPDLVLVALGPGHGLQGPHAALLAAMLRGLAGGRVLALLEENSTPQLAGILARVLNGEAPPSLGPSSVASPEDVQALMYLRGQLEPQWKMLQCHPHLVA
UniProt Q9P035: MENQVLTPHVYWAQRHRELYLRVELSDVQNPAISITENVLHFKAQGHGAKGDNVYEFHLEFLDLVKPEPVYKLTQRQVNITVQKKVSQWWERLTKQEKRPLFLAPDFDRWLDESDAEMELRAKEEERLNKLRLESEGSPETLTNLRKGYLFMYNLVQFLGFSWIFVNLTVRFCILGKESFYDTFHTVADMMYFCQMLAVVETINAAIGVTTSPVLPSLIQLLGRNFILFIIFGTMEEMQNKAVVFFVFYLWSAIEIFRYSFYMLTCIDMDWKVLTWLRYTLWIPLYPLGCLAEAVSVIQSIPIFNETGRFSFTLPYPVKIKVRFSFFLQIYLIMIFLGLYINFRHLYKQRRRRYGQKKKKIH
UniProt Q00403, whole entry, looked up: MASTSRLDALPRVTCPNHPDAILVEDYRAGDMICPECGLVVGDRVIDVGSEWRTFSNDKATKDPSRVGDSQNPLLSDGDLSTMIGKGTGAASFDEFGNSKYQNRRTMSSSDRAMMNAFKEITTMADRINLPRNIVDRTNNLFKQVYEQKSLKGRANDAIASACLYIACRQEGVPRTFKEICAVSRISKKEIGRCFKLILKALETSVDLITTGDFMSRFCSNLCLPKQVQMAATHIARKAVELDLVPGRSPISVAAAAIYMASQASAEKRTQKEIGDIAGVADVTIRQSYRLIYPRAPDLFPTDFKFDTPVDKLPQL
UniProt P16401, whole entry, looked up: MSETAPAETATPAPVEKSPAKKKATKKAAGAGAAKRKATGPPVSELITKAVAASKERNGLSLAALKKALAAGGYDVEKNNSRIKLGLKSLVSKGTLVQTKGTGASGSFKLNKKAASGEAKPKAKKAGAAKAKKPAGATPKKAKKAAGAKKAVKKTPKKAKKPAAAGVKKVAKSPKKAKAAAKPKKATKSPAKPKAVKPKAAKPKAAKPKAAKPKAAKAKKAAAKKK
UniProt Q9HAV7: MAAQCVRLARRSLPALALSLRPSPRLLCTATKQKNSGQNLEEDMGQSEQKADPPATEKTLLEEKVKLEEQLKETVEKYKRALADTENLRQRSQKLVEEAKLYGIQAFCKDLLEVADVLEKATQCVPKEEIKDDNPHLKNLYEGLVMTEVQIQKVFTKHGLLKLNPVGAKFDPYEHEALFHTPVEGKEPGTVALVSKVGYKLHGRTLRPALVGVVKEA
UniProt P29084: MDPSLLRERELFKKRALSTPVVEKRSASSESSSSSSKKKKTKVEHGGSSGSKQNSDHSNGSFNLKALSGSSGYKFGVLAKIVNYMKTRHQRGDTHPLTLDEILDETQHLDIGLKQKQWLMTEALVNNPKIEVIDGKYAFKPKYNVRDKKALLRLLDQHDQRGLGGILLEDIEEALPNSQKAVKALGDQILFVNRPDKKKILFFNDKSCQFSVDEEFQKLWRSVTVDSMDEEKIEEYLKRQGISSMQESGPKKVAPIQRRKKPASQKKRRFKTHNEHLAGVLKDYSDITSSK
UniProt Q4V328: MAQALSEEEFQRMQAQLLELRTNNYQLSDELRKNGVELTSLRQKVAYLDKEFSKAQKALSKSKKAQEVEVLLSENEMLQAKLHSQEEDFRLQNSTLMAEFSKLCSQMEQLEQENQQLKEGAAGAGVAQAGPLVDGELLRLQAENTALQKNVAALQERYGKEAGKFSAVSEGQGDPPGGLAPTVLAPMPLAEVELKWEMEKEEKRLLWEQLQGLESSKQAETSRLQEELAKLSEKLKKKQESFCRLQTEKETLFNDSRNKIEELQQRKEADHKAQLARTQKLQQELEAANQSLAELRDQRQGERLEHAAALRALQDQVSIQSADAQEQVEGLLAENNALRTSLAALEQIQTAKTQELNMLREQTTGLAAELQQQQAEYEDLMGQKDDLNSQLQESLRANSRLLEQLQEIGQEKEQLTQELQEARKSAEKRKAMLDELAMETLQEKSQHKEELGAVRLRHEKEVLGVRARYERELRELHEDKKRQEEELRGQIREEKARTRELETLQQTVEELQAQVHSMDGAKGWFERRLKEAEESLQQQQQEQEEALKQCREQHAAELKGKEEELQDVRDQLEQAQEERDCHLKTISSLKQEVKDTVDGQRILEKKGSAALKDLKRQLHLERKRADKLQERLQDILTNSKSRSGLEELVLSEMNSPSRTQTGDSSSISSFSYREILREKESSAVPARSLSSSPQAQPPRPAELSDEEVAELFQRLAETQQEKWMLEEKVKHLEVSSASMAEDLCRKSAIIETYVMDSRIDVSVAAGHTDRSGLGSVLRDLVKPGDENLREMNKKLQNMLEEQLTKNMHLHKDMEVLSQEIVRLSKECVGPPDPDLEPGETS
UniProt P51858: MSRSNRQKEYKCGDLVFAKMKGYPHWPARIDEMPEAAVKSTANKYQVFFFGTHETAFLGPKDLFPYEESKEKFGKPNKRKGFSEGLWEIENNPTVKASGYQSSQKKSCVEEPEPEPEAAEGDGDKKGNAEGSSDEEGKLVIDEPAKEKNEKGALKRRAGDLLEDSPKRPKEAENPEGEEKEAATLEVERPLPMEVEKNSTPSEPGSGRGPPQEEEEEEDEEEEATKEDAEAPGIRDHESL
UniProt O94927: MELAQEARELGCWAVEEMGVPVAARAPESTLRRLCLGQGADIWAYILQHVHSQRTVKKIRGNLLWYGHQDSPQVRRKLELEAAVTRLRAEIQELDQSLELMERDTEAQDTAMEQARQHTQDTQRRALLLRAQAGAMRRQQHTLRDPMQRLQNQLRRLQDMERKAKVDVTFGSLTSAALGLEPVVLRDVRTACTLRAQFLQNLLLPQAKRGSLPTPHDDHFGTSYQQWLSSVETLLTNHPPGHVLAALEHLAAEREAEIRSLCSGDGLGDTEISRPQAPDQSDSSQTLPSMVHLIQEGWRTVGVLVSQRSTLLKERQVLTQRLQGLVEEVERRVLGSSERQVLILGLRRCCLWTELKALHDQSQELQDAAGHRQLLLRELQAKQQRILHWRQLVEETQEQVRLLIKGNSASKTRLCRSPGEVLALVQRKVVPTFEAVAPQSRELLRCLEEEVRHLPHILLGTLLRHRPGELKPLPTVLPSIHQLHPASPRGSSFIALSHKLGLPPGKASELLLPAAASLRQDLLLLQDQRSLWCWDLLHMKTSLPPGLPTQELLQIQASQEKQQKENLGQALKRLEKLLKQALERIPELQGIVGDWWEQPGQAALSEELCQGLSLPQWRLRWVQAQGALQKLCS
UniProt P43250, whole entry, looked up: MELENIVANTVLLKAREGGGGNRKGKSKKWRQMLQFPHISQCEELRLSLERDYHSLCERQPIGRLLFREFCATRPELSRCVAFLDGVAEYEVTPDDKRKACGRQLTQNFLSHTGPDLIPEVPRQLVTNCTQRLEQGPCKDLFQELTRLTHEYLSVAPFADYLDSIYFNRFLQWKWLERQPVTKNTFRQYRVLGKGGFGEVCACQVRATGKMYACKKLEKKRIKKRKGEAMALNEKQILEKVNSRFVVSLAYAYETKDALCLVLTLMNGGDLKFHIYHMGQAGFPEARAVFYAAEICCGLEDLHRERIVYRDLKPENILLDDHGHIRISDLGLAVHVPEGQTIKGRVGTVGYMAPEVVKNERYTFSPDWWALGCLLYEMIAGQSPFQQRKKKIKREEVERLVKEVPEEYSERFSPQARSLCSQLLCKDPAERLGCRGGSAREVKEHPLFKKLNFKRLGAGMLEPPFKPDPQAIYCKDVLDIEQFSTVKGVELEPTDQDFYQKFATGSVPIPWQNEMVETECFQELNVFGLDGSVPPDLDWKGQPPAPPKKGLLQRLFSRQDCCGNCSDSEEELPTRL

Experiments:
Assay in all cases: log2 fold change, soluble protein after heating vs DMSO (PISA); higher = thermal stabilisation; K562 lysate, 10 uM; active = over 0.2 and 3.5 SD of the protein, either way, in both replicates (recomputed)
[1] = compound: CS(=O)(=O)CCNCc1ccc(-c2ccc3ncnc(Nc4ccc(OCc5cccc(F)c5)c(Cl)c4)c3c2)o1 [lapatinib]
How it was run: (§1)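 K562 pellets were dounce-homogenised in PBS pH 7.4 with 1 mM MgCl2, and the crude extract at 1 mg/mL protein was treated with 10 μM compound for 30 min. Aliquots were heated for 3 min across 48°C-58°C, pooled, and brought to 0.5% NP-40 at 4°C; soluble protein was the supernatant after 21,000xg for 90 min. Soluble protein was quantified by TMTpro 16plex LC-MS/MS with channel sums equalised, and reported as log2 fold change in thermal stability against DMSO controls, with values from duplicates.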

[2] = compound: CS(=O)(=O)N1CCN(Cc2cc3nc(-c4cccc5[nH]ncc45)nc(N4CCOCC4)c3s2)CC1 [pictilisib]
How it was run: as §1

[3] = compound: C[C@@H](Oc1cc(-c2cnn(C3CCNCC3)c2)cnc1N)c1c(Cl)ccc(F)c1Cl [crizotinib]
How it was run: as §1

[4] = compound: C[C@H](C1=CC=C(C=C1)C(=O)NC2=C3C=CNC3=NC=C2)N
How it was run: as §1

[5] = compound: C[C@H](Nc1ncnc2nc[nH]c12)c1cc2cccc(Cl)c2c(=O)n1-c1ccccc1 [duvelisib]
How it was run: as §1

[6] = compound: Cc1cc(Nc2cc(CN3CCOCC3)c3nc(C)c(Cc4ccc(Cl)cc4F)n3n2)n[nH]1 [gandotinib]
How it was run: as §1

[7] = compound: Cc1cc(Nc2cc(N3CCN(C)CC3)nc(Sc3ccc(NC(=O)C4CC4)cc3)n2)n[nH]1 [tozasertib]
How it was run: as §1

[8] = compound: Cc1ccc(-n2nc(C(C)(C)C)cc2NC(=O)Nc2ccc(OCCN3CCOCC3)c3ccccc23)cc1 [doramapimod]
How it was run: as §1

[9] = compound: Cc1ccc(NC(=O)c2ccc(CN3CC[C@H](N(C)C)C3)c(C(F)(F)F)c2)cc1Nc1nccc(-c2cncnc2)n1 [bafetinib]
How it was run: as §1

[10] = compound: Cc1cccc(CC(=O)N2CCc3c2ccc(-c2cn(C)c4ncnc(N)c24)c3F)n1
How it was run: as §1

[11] = compound: Cc1cn(-c2cc(NC(=O)c3ccc(C)c(Nc4nccc(-c5cccnc5)n4)c3)cc(C(F)(F)F)c2)cn1 [nilotinib]
How it was run: as §1

[12] = compound: Cc1nc(Nc2n[nH]c3c2CN(C(=O)N[C@H](CN(C)C)c2ccccc2)C3(C)C)c2sccc2n1
How it was run: as §1

[13] = compound: Cc1nc(Nc2ncc(C(=O)Nc3c(C)cccc3Cl)s2)cc(N2CCN(CCO)CC2)n1 [dasatinib]
How it was run: as §1

[14] = compound: Cc1ncc(-c2ccnc(Nc3ccc(S(C)(=O)=O)cc3)n2)n1C(C)C
How it was run: as §1

[15] = compound: Cn1cc(-c2ccc3c(c2)CCN3C(=O)Cc2cccc(C(F)(F)F)c2)c2c(N)ncnc21
How it was run: as §1

[16] = compound: Cn1cc(CNCC2CCN(c3ncc(C(=O)NO)cn3)CC2)c2ccccc21 [quisinostat]
How it was run: as §1

[17] = compound: Cn1cncc1[C@@](N)(c1ccc(Cl)cc1)c1ccc2c(c1)c(-c1cccc(Cl)c1)cc(=O)n2C [tipifarnib]
How it was run: as §1

[18] = compound: NC(=O)Nc1cc(-c2cccc(F)c2)sc1C(=O)N[C@H]1CCCNC1
How it was run: as §1

[19] = compound: NC(=O)c1cnc(N[C@@H]2CCCC[C@@H]2N)nc1Nc1cccc(-n2nccn2)c1
How it was run: as §1

[20] = compound: NC1(c2ccc(-c3nc4ccn5c(=O)[nH]nc5c4cc3-c3ccccc3)cc2)CCC1
How it was run: as §1

Measured: log2 fold change

GSN (UniProt P06396)
inactive: [1] 0.044 | [2] 0 | [3] -0.01 | [4] -0.021 | [5] -0.009 | [6] 0.018 | [7] -0.035 | [8] 0.035 | [9] -0.037 | [10] 0.058 | [11] 0.009 | [12] -0.007 | [13] -0.009 | [14] -0.018 | [15] 0.01 | [16] -0.006 | [17] -0.011 | [18] 0.014 | [19] 0.012 | [20] 0.009

HAUS2 (UniProt Q9NVX0)
inactive: [1] -0.033 | [2] -0.187 | [3] -0.055 | [4] 0.167 | [5] 0.049 | [6] -0.159 | [7] 0.067 | [8] -0.047 | [9] 0.005 | [10] -0.017 | [11] 0.036 | [12] -0.033 | [13] -0.028 | [14] 0.069 | [15] 0.05 | [16] -0.04 | [17] -0.034 | [18] -0.014 | [19] -0.094 | [20] 0.037

HAGH (UniProt Q16775)
inactive: [1] -0.05 | [2] -0.024 | [3] -0.007 | [4] -0.057 | [5] -0.049 | [6] 0.046 | [7] 0.03 | [8] -0.039 | [9] -0.058 | [10] 0.043 | [11] 0.03 | [12] 0.01 | [13] -0.017 | [14] -0.004 | [15] -0.043 | [16] -0.054 | [17] -0.011 | [18] 0.045 | [19] 0.01 | [20] -0.032

GTF2E1 (UniProt P29083)
inactive: [1] -0.027 | [2] -0.009 | [3] -0.038 | [4] -0.121 | [5] -0.015 | [6] 0.06 | [7] 0.002 | [8] 0.018 | [9] -0.089 | [10] 0.053 | [11] -0.03 | [12] 0.013 | [13] -0.003 | [14] -0.012 | [15] 0.025 | [16] -0.073 | [17] 0 | [18] -0.001 | [19] 0.006 | [20] -0.003

HDAC10 (UniProt Q969S8)
inactive: [1] -0.101 | [2] -0.019 | [3] -0.015 | [4] -0.042 | [5] -0.014 | [6] 0.029 | [7] 0.068 | [8] -0.046 | [9] 0.035 | [10] 0.061 | [11] -0.009 | [12] 0.023 | [13] -0.104 | [14] 0.032 | [15] 0.144 | [16] 0.245 | [17] -0.123 | [18] 0.092 | [19] 0.111 | [20] -0.001

UniProt H0YHG0
inactive: [1] 0.028 | [2] 0.017 | [3] 0.027 | [4] -0.104 | [5] 0.024 | [6] 0.08 | [7] -0.002 | [8] 0.004 | [9] -0.012 | [10] 0.031 | [11] 0.004 | [12] 0.026 | [13] 0.035 | [14] 0.004 | [15] -0.003 | [16] 0.005 | [17] 0.022 | [18] -0.022 | [19] -0.006 | [20] 0.006

HACD3 (UniProt Q9P035)
inactive: [1] -0.067 | [2] -0.039 | [3] -0.032 | [4] -0.058 | [5] -0.009 | [6] -0.01 | [7] -0.008 | [8] -0.003 | [9] -0.088 | [10] 0.122 | [11] 0.023 | [12] -0.09 | [13] -0.041 | [14] -0.007 | [15] 0.017 | [16] -0.048 | [17] -0.04 | [18] 0.013 | [19] 0.01 | [20] -0.023

GTF2B (UniProt Q00403)
inactive: [1] -0.013 | [2] 0.004 | [3] -0.056 | [4] -0.014 | [5] 0.02 | [6] -0.064 | [7] 0.035 | [8] 0.028 | [9] -0.02 | [10] 0.01 | [11] -0.01 | [12] 0.021 | [13] -0.009 | [14] -0.047 | [15] 0.045 | [16] -0.041 | [17] 0.008 | [18] -0.014 | [19] -0.002 | [20] -0.031

H1-5 (UniProt P16401)
inactive: [1] -0.026 | [2] 0.022 | [3] 0.004 | [4] 0.02 | [5] -0.03 | [6] -0.018 | [7] -0.046 | [8] -0.046 | [9] 0.002 | [10] -0.028 | [11] 0 | [12] 0.012 | [13] -0.042 | [14] 0.013 | [15] -0.05 | [16] -0.001 | [17] 0.02 | [18] -0.022 | [19] -0.015 | [20] -0.011

HEATR5B (UniProt Q9P2D3)
inactive: [1] -0.018 | [2] -0.062 | [3] -0.01 | [4] -0.011 | [5] 0.023 | [6] -0.065 | [7] 0.019 | [8] 0.037 | [9] -0.16 | [10] 0.037 | [11] 0.038 | [12] 0.012 | [13] -0.043 | [14] 0.02 | [15] 0.032 | [16] 0.002 | [17] -0.013 | [18] -0.024 | [19] 0.008 | [20] 0.002

GRPEL1 (UniProt Q9HAV7)
inactive: [1] -0.031 | [2] 0.002 | [3] 0.021 | [4] -0.039 | [5] 0.006 | [6] 0.024 | [7] 0.001 | [8] -0.028 | [9] 0.018 | [10] 0.014 | [11] -0.004 | [12] 0.005 | [13] -0.017 | [14] 0.025 | [15] 0.016 | [16] 0.042 | [17] 0.017 | [18] -0.039 | [19] -0.015 | [20] 0.009

GTF2E2 (UniProt P29084)
inactive: [1] 0.033 | [2] -0.005 | [3] 0.006 | [4] 0.02 | [5] -0.008 | [6] 0.006 | [7] 0.005 | [8] 0.022 | [9] -0.085 | [10] 0.014 | [11] -0.019 | [12] -0.01 | [13] -0.005 | [14] -0.025 | [15] 0.024 | [16] -0.056 | [17] 0.048 | [18] 0 | [19] -0.037 | [20] 0.033

GRIPAP1 (UniProt Q4V328)
inactive: [1] 0.033 | [2] -0.008 | [3] 0.025 | [4] 0.094 | [5] 0.019 | [6] -0.013 | [7] -0.044 | [8] -0.003 | [9] -0.014 | [10] -0.07 | [11] -0.025 | [12] -0.001 | [13] 0.016 | [14] 0.018 | [15] 0.001 | [16] -0.012 | [17] -0.011 | [18] -0.011 | [19] -0.022 | [20] 0.005

Taken from above (two entries):
HEATR5B (UniProt Q9P2D3)
inactive: [1] -0.018 | [2] -0.062 | [3] -0.01 | [4] -0.011 | [5] 0.023 | [6] -0.065 | [7] 0.019 | [8] 0.037 | [9] -0.16 | [10] 0.037 | [11] 0.038 | [12] 0.012 | [13] -0.043 | [14] 0.02 | [15] 0.032 | [16] 0.002 | [17] -0.013 | [18] -0.024 | [19] 0.008 | [20] 0.002

GRPEL1 (UniProt Q9HAV7)
inactive: [1] -0.031 | [2] 0.002 | [3] 0.021 | [4] -0.039 | [5] 0.006 | [6] 0.024 | [7] 0.001 | [8] -0.028 | [9] 0.018 | [10] 0.014 | [11] -0.004 | [12] 0.005 | [13] -0.017 | [14] 0.025 | [15] 0.016 | [16] 0.042 | [17] 0.017 | [18] -0.039 | [19] -0.015 | [20] 0.009

Additional entries follow.

HDGF (UniProt P51858)
inactive: [1] 0.02 | [2] 0 | [3] 0.016 | [4] 0.079 | [5] 0.003 | [6] -0.033 | [7] 0.023 | [8] -0.021 | [9] 0.03 | [10] -0.068 | [11] -0.012 | [12] -0.007 | [13] 0.018 | [14] -0.001 | [15] -0.016 | [16] 0.013 | [17] 0.007 | [18] -0.02 | [19] -0.006 | [20] -0.006

HAUS5 (UniProt O94927)
inactive: [1] -0.036 | [2] -0.017 | [3] -0.071 | [4] 0.05 | [5] 0.044 | [6] -0.098 | [7] -0.002 | [8] 0.032 | [9] -0.042 | [10] -0.029 | [11] -0.014 | [12] 0.01 | [13] -0.071 | [14] -0.011 | [15] -0.015 | [16] -0.11 | [17] 0.006 | [18] 0.079 | [19] 0.004 | [20] -0.02

GRK6 isoform 2 (UniProt P43250)
inactive: [1] -0.122 | [2] -0.088 | [3] 0.084 | [4] -0.066 | [5] -0.04 | [6] 0.058 | [7] -0.063 | [8] 0.046 | [9] 0.065 | [10] 0.028 | [11] -0.024 | [12] 0.094 | [13] 0.023 | [14] 0.005 | [15] -0.014 | [16] -0.043 | [17] 0 | [18] 0.012 | [19] 0.028 | [20] -0.097
